Source: publication doi:10.1101/495762 (bioRxiv, 2018)
Changes are numbered by the printed parent chain. Numbers in names are those of the source. No constants are given. Whether binding was seen depends on the method and setting. In cells and extracts the contact can be indirect. Some binding calls cover weakened binding; strength is not graded here. Sequences can lack the tags named with a protein.

How the values were obtained:
Assay in all cases: cross-linking
[1] = molecular target: T1, Smc3(K160C)-HaloTag (S. cerevisiae) (UniProt P47037)
T1 sequence: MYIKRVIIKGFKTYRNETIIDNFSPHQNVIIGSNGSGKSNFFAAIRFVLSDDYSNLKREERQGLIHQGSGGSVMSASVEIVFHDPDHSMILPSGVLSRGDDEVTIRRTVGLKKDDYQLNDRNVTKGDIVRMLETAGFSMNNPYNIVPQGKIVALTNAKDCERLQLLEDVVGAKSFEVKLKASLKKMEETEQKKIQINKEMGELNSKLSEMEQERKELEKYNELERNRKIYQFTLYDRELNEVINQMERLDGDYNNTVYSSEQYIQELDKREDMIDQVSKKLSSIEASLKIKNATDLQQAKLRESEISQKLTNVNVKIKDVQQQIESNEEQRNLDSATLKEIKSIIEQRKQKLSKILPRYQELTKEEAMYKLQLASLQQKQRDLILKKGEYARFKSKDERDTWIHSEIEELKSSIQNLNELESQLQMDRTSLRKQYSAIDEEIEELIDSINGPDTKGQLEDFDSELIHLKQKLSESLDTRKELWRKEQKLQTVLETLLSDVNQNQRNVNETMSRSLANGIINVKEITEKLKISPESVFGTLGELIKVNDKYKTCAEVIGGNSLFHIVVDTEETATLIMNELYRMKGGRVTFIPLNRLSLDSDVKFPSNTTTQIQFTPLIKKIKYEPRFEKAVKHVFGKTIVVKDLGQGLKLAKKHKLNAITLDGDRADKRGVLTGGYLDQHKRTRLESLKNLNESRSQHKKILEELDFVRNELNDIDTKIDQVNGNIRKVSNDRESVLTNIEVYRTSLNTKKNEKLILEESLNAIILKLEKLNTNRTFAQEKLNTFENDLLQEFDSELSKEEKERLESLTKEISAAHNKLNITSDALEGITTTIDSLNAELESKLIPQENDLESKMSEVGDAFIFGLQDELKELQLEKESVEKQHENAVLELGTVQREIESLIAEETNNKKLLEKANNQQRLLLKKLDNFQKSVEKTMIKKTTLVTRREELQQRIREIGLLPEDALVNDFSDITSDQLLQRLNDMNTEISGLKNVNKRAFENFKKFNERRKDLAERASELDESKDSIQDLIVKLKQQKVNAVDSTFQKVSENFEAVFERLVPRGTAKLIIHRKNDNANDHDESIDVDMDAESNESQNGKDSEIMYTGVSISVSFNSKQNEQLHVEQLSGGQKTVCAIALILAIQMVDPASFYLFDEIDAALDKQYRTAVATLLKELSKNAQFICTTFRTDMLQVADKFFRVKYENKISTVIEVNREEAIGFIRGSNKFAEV

[2] = molecular target: T2, Smc3(K160C, S1127R)-HaloTag (S. cerevisiae) (UniProt P47037)
T2 sequence: T1 sequence with S1127R

[3] = molecular target: T3, Smc3(K38I, K160C)-HaloTag (S. cerevisiae) (UniProt P47037)
T3 sequence: T1 sequence with K38I

Measured: binding

B1: Smc1(S161C) (protein, UniProt P32908 1-1225)
chain: MGRLVGLELSNFKSYRGVTKVGFGESNFTSIIGPNGSGKSNMMDAISFVLGVRSNHLRSNILKDLIYRGVLNDENSDDYDNEGAASSNPQSAYVKAFYQKGNKLVELMRIISRNGDTSYKIDGKTVSYKDYSIFLENENILIKAKNFLVFQGDVEQIAAQCPVELSRMFEEVSGSIQYKKEYEELKEKIEKLSKSATESIKNRRRIHGELKTYKEGINKNEEYRKQLDKKNELQKFQALWQLYHLEQQKEELTDKLSALNSEISSLKGKINNEMKSLQRSKSSFVKESAVISKQKSKLDYIFKDKEKLVSDLRLIKVPQQAAGKRISHIEKRIESLQKDLQRQKTYVERFETQLKVVTRSKEAFEEEIKQSARNYDKFKLNENDLKTYNCLHEKYLTEGGSILEEKIAVLNNDKREIQEELERFNKRADISKRRITEELSITGEKLDTQLNDLRVSLNEKNALHTERLHELKKLQSDIESANNQEYDLNFKLRETLVKIDDLSANQRETMKERKLRENIAMLKRFFPGVKGLVHDLCHPKKEKYGLAVSTILGKNFDSVIVENLTVAQECIAFLKKQRAGTASFIPLDTIETELPTLSLPDSQDYILSINAIDYEPEYEKAMQYVCGDSIICNTLNIAKDLKWKKGIRGKLVTIEGALIHKAGLMTGGISGDANNRWDKEEYQSLMSLKDKLLIQIDELSNGQRSNSIRAREVENSVSLLNSDIANLRTQVTQQKRSLDENRLEIKYHNDLIEKEIQPKITELKKKLDDLENTKDNLVKEKEALQNNIFKEFTSKIGFTIKEYENHSGELMRQQSKELQQLQKQILTVENKLQFETDRLSTTQRRYEKAQKDLENAQVEMKSLEEQEYAIEMKIGSIESKLEEHKNHLDELQKKFVTKQSELNSSEDILEDMNSNLQVLKRERDGIKEDIEKFDLERVTALKNCKISNINIPISSETTIDDLPISSTDNEAITISNSIDINYKGLPKKYKENNTDSARKELEQKIHEVEEILNELQPNARALERYDEAEGRFEVINNETEQLKAEEKKILNQFLKIKKKRKELFEKTFDYVSDHLDAIYRELTKNPNSNVELAGGNASLTIEDEDEPFNAGIKYHATPPLKRFKDMEYLSGGEKTVAALALLFAINSYQPSPFFVLDEVDAALDITNVQRIAAYIRRHRNPDLQFIVISLKNTMFEKSDALVGVYRQQQENSSKIITLDLSNYAE
binds: [1] | [2] | [3]
